Data source: PubChem BioAssay AID1508587 (Peter MacCallum Cancer Centre, 2020)
Screen: 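Retest of knockdowns boosting BRAF inhibitor action on lactate release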 (follow-up of hits). Cell system: human WM266.4 melanoma cells with a BRAF V600 mutation. Knock-down reagent: single siRNA against human genes, 25 nM. Timing: 96 h. Challenge: vemurafenib 300 nM (about IC25), given 48 h after transfection for 48 h. Measurement: 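Medium lactate read by absorbance over DAPI-counted nuclei; ratio with versus without vemurafenib, set against non-targeting siRNA, averaged over 2 replicates; cell number also recorded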. Scale: lactate per cell, drug vs no drug: higher = less drug-induced drop in lactate per cell; lactate per cell with vemurafenib: higher = more lactate per cell under drug; lactate per cell without drug: higher = more lactate per cell without drug; cell growth with vemurafenib and cell growth without drug: higher = more cell growth over 48 h. Call rule: 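a duplex is active when its lactate-per-cell ratio with versus without drug falls under 0.55, i.e. 2 SD below non-targeting; a gene is confirmed if 2 or more of 4 duplexes pass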.
The deposit covers about 1,600 reagents; shown is a random part of them. 623 of them (39%) were called active. 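Calls are for each duplex; lactate ratios contain extreme outliers.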 Reagents against one gene are numbered here.

gene symbol | reagent | lactate per cell, drug vs no drug | lactate per cell with vemurafenib | lactate per cell without drug | cell growth with vemurafenib | cell growth without drug | Outcome
POGLUT2 (protein O-glucosyltransferase 2) | 1 | 0.5 | 0.76 | 0.98 | 1.03 | 0.92 | active
POGLUT2 (protein O-glucosyltransferase 2) | 2 | 0.68 | 1.06 | 1.02 | 0.48 | 0.54 | inactive
POGLUT2 (protein O-glucosyltransferase 2) | 3 | 0.55 | 0.94 | 1.1 | 0.5 | 0.62 | inactive
POGLUT2 (protein O-glucosyltransferase 2) | 4 | 0.72 | 1.86 | 1.67 | 0.15 | 0.29 | inactive
PLAGL1 (PLAG1 like zinc finger 1) | 1 | 0.52 | 0.82 | 0.92 | 1.03 | 1.04 | active
PLAGL1 (PLAG1 like zinc finger 1) | 2 | 0.31 | 1.5 | 2.91 | 0.1 | -0.06 | active
PLAGL1 (PLAG1 like zinc finger 1) | 3 | 0.42 | 0.76 | 1.07 | -0.08 | 0.26 | active
PLAGL1 (PLAG1 like zinc finger 1) | 4 | 0.54 | 1.08 | 1.19 | 0.49 | 0.58 | active
ZFHX2 (zinc finger homeobox 2) | 1 | 0.68 | 1.31 | 1.22 | 0.43 | 0.47 | inactive
ZFHX2 (zinc finger homeobox 2) | 2 | 0.54 | 0.9 | 1.07 | 0.57 | 0.57 | active
ZFHX2 (zinc finger homeobox 2) | 3 | 0.4 | 0.99 | 1.52 | 0.18 | 0.2 | active
ZFHX2 (zinc finger homeobox 2) | 4 | 0.46 | 0.72 | 0.98 | 0.83 | 0.54 | active
PUS10 (pseudouridine synthase 10) | 1 | 0.55 | 1.4 | 1.7 | 0.55 | 0.49 | inactive
PUS10 (pseudouridine synthase 10) | 2 | 0.6 | 1.05 | 1.18 | 0.88 | 0.58 | inactive
PUS10 (pseudouridine synthase 10) | 3 | 0.62 | 1.26 | 1.42 | 0.21 | 0.38 | inactive
PUS10 (pseudouridine synthase 10) | 4 | 0.58 | 0.99 | 1.17 | 0.63 | 0.47 | inactive
FAM110C (family with sequence similarity 110 member C) | 1 | 0.48 | 1.7 | 2.49 | -0.19 | -0.11 | active
FAM110C (family with sequence similarity 110 member C) | 2 | 0.74 | 2.71 | 2.7 | 0 | 0.13 | inactive
FAM110C (family with sequence similarity 110 member C) | 3 | 0.6 | 1.81 | 2.12 | -0.07 | -0.01 | inactive
FAM110C (family with sequence similarity 110 member C) | 4 | 1 | 4.04 | 2.89 | -0.23 | -0.09 | inactive
KCNH8 (potassium voltage-gated channel subfamily H member 8) | 1 | 0.52 | 0.78 | 0.94 | 0.05 | 0.45 | active
KCNH8 (potassium voltage-gated channel subfamily H member 8) | 2 | 0.84 | 1.54 | 1.17 | 0.03 | 0.37 | inactive
KCNH8 (potassium voltage-gated channel subfamily H member 8) | 3 | 0.66 | 1.12 | 1.06 | 0.75 | 0.68 | inactive
KCNH8 (potassium voltage-gated channel subfamily H member 8) | 4 | 0.76 | 1.2 | 1.02 | 0.13 | 0.28 | inactive
MRS2 (magnesium transporter MRS2) | 1 | 0.5 | 0.44 | 0.64 | 1.29 | 1.37 | active
MRS2 (magnesium transporter MRS2) | 2 | 0.53 | 1.06 | 1.47 | 0.82 | 0.52 | active
MRS2 (magnesium transporter MRS2) | 3 | 0.49 | 0.46 | 0.68 | 0.7 | 0.79 | active
MRS2 (magnesium transporter MRS2) | 4 | 0.69 | 1.62 | 1.71 | 0.25 | 0.2 | inactive
RNF11 (ring finger protein 11) | 1 | 0.38 | 0.76 | 1.17 | 0.7 | 0.5 | active
RNF11 (ring finger protein 11) | 2 | 0.42 | 2.88 | 4.12 | 0.14 | -0.11 | active
RNF11 (ring finger protein 11) | 3 | 0.6 | 0.72 | 0.71 | 1.24 | 1.34 | inactive
RNF11 (ring finger protein 11) | 4 | 0.68 | 3.21 | 2.92 | 0.19 | 0.09 | inactive
RAB34 (RAB34, member RAS oncogene family) | 1 | 0.59 | 4.89 | 5.73 | 0.05 | 0 | inactive
RAB34 (RAB34, member RAS oncogene family) | 2 | 0.86 | 2.48 | 1.97 | 0.09 | 0.07 | inactive
RAB34 (RAB34, member RAS oncogene family) | 3 | 0.78 | 0.69 | 0.65 | 0.46 | 0.52 | inactive
RAB34 (RAB34, member RAS oncogene family) | 4 | 0.92 | 2.38 | 1.77 | 0.22 | 0.4 | inactive
L3MBTL3 (L3MBTL histone methyl-lysine binding protein 3) | 1 | 0.16 | 0.32 | 1.3 | 0.03 | 0.03 | active
L3MBTL3 (L3MBTL histone methyl-lysine binding protein 3) | 2 | 0.57 | 1.74 | 1.93 | 0.14 | 0.08 | inactive
L3MBTL3 (L3MBTL histone methyl-lysine binding protein 3) | 3 | 0.24 | 0.26 | 0.69 | 0.37 | 0.87 | active
L3MBTL3 (L3MBTL histone methyl-lysine binding protein 3) | 4 | 0.44 | 1.15 | 1.58 | 0.69 | 0.3 | active
HPS4 (HPS4 biogenesis of lysosomal organelles complex 3 subunit 2) | 1 | 0.88 | 1.04 | 0.78 | 0.26 | 0.76 | inactive
HPS4 (HPS4 biogenesis of lysosomal organelles complex 3 subunit 2) | 2 | 0.46 | 2.62 | 3.75 | -0.02 | -0.02 | active
HPS4 (HPS4 biogenesis of lysosomal organelles complex 3 subunit 2) | 3 | 0.76 | 1.12 | 0.97 | 0.63 | 0.87 | inactive
HPS4 (HPS4 biogenesis of lysosomal organelles complex 3 subunit 2) | 4 | 0.44 | 0.7 | 1.04 | 0.55 | 0.75 | active
CTHRC1 (collagen triple helix repeat containing 1) | 1 | 0.75 | 1.21 | 1.17 | 0.74 | 0.83 | inactive
CTHRC1 (collagen triple helix repeat containing 1) | 2 | 0.1 | 0.11 | 0.76 | -0.02 | 0.24 | active
CTHRC1 (collagen triple helix repeat containing 1) | 3 | 0.72 | 2.24 | 2.25 | 0.04 | 0.03 | inactive
CTHRC1 (collagen triple helix repeat containing 1) | 4 | 0.65 | 0.69 | 0.76 | 0.59 | 0.84 | inactive
TANGO2 (transport and golgi organization 2 homolog) | 1 | 0.81 | 1.67 | 1.41 | 0.72 | 0.69 | inactive
TANGO2 (transport and golgi organization 2 homolog) | 2 | 0.14 | 0.15 | 0.85 | 0.08 | 0.11 | active
TANGO2 (transport and golgi organization 2 homolog) | 3 | 0.5 | 0.92 | 1.25 | 0.01 | 0.2 | active
TANGO2 (transport and golgi organization 2 homolog) | 4 | 0.74 | 1.98 | 1.84 | 0.41 | 0.42 | inactive
